At least one peptide structure holds a part that was inferred or is arguable (an end, a ring closure or a residue). Ends that are not written are not given here.
Columns and labels:
TGF-β1 = target: T1, TGF-β1 (Homo sapiens, UniProt P01137); conditions: in vitro, Mv-1-Lu cells; cited from earlier work
T1 construct: host or cells: Mv-1-Lu cells (the cells bear the receptors; TGF-β1 is the added ligand)

Amino acid sequences for entries named in this document (tags omitted). Residues count along the entry.
UniProt P01137, 279-390 limits assumed: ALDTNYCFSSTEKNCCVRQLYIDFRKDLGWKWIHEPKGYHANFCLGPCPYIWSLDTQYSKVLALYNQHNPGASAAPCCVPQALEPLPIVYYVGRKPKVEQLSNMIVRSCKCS

[1] = tested on: liver cirrhosis induced by carbon tetrachloride; conditions: intraperitoneal; rats with CCl4-induced cirrhosis; cited from earlier work
[2] = tested on: skin sclerosis induced by high doses of bleomycin; assay: Fibrosis induced by high doses of bleomycin, with simultaneous topical P144 emulsion for 4 weeks; assay type: in vivo, C3H mice
phospho-SMAD2/3 = assay: Immunohistochemical detection of phosphorylated SMAD2/3 in skin sections of the bleomycin mice; assay type: in vivo, C3H mice; conditions: FIG. 4B; five mice per group; compared with vehicle; p<0.05
[3] = tested on: connective tissue growth factor (CTGF); assay: Immunohistochemical detection of CTGF in skin sections of the bleomycin mice; assay type: in vivo, C3H mice; conditions: FIG. 5
Mv-1-Lu cells = conditions: in vitro; cited from earlier work
[4] = tested on: established fibrosis induced by bleomycin; assay: Fibrosis established by 4 weeks of bleomycin injections, then topical P144 emulsion for 2 weeks; assay type: in vivo, C3H mice; conditions: topical P144 for 2 weeks after 4 weeks of bleomycin
[5] = tested on: smooth muscle α-actin (SMA); assay: Immunofluorescent detection of α-SMA-positive myofibroblasts in skin sections of the bleomycin mice; assay type: in vivo, C3H mice; conditions: FIG. 3B; 10 mice per group; compared with vehicle; p<0.05

Sequence: TSLDASIIWAMMQN [Peptide P144]
- interfering with the binding of TGF-β1 to its cellular receptors (TGF-β1): capable of interfering
- antifibrotic response in the liver [1]: powerful antifibrotic response
- area of dermal and hypodermic collagen ([2]; bleomycin 1 mg/ml on alternate days for 4 weeks, emulsion with P144 (0.1 mg/ml) daily, relative to vehicle): significant decrease
- thickness of the dermis ([2]; bleomycin dose increased tenfold, simultaneous topical P144, relative to P144-free emulsion): significant decrease
- number of fibroblasts positive for phospho-SMAD2/3 per field (phospho-SMAD2/3): decreased significantly
- CTGF in fibroblasts ([3]; after treatment with P144): still detectable
- CTGF expression in the epidermis and the hair follicles ([3]; compared with vehicle only): clear decrease
- preventing the inhibition of proliferation induced by TGF-β1 (Mv-1-Lu cells): preventing the inhibition of proliferation
- thickness of the dermis ([4]; FIG. 2A): significant decrease
- collagen content ([4]; FIG. 2B): significant decrease
- number of myofibroblasts positive for α-SMA per field [5]: significant reduction

Source: US7582609B2, “Method for the treatment of skin fibrosis and suitable compositions for such treatment” (Digna Biotech, S.L., priority 2006, dated 2009)
